Results as given in patent US20220332844A1 (ORIONIS BIOSCIENCES, published 2022).
No constants are given. Whether binding was seen depends on the method and setting. Some results given as binding are weak or reduced against the parent protein; the word gives no strength. Each block holds one binder with its values, some of them ahead of it.

Amino acid sequences for entries named in this document (tags omitted). A change or cut given only in a name is not applied to a line headed by its entry.
UniProt Q12884: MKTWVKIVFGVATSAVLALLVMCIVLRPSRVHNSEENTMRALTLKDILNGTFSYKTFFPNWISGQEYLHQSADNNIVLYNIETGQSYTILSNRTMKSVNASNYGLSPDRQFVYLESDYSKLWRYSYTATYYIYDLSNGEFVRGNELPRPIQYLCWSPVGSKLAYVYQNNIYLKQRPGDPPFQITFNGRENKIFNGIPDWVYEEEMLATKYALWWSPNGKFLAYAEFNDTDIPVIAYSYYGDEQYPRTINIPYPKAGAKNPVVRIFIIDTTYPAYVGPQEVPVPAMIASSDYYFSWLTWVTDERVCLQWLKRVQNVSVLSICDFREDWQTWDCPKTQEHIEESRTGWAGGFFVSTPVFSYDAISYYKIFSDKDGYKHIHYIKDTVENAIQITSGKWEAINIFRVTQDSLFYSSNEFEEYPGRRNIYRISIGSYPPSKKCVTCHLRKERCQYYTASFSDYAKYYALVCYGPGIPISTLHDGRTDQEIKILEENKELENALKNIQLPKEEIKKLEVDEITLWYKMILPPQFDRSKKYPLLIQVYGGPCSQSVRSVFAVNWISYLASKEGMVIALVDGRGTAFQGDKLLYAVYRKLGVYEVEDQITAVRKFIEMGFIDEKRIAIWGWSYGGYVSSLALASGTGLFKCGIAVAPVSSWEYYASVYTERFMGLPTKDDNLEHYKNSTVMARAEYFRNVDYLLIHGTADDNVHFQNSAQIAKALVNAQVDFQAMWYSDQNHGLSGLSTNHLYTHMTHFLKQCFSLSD

Biological target: recombinant human FAPa extracellular domain (human) (UniProt Q12884)
Experiment: library panning on coated antigen, positive colonies; members in Table 6

- binding: binds
B4: 3PE28 (VHH)
VHH: QVQLQESGGGLVQPEGSLRLSCAASGSISSINAMAWYRQAPGKRRELVAGIDGGGVTNYPDSVKGRFTISRDNAKNTVYLQMSSLKPEDTAVYYCNLWPPRASPGGRVYWGQGTQVTVSS

- binding: binds
B5: 3PE43 (VHH)
VHH: QVQLQESGGGLVQAGGSLRLSCAASGSTFSVNAVAWYRQAPGKRRELVAGISGGGVTNYPDSVKGRFTISRDNAKNTVYLQMSSLKPEDTAVYYCNLWPPRASPDGRVYWGQGTQVTVSS

- binding: binds
B6: 3PE44 (VHH)
VHH: QVQLQESGGGLVQPGGSLRLSCAASGSTFSINAMAWYRQAPGKRRELVAGISGGDVTHYPDSVKGRFTISRDNAKNTVYLQMSSLKPEDTAVYYCNLWPPRASPGGRVYWGQGTQVTVSS

- binding: binds
B7: 3PE47 (VHH)
VHH: QVQLQESGGGLVQPGGSLRLSCAASGSTFSINAVAWYRQAPGKRRELVAGISGGGVTNYPDSVKGRFTISRDNAKNTVYLQMSSLIPEDTAVYYCNLWPPRASPGGRVYWGQGTQVTVSS

- binding: binds
B8: 3PE49 (VHH)
VHH: QVQLQESGGGLVQPGGSLRLSCAGSGSTFSINAMAWYRQAPGERRELVAGISGDNITNYPNSVKGRFTISRDNAKNTVYLQMSSLKPEDTAVYYCNLWPPRASPGGRVYWGQGTQVTVSS

- binding: binds
B9: 3PE62 (VHH)
VHH: QVQLQESGGGLVQPGGSLRLSCAASGSTFSSNAMAWYRQAPGKRRELVAGISGGGVTNYPDSVKGRFTISRDNAKNTVYLQMSSLKPEDTAVYYCNLWPPRASPDGGVYWGQGTQVTVSS

- binding: binds
B10: 3PE69 (VHH)
VHH: QVQLQESGGGLVQPGGSLTLSCTTSEFTLAYFGVGWFRQAPGKRRDWVAGITTDGITKYPDSLKGRFTISRDNAKNTVYLQMNSLKPEDTAVYYCNLWPPRASPSGRLYWGQGTQVTVSS

- binding: binds
B11: 3PE72 (VHH)
VHH: QVQLQESGGGLVQAGGSLRLSCAASGSTFSGNAMAWYRRAPGKRRELVAGISGGGVTNYPDSVKGRFTISRDNAKNTVYLQMSSLKPEDTAVYYCNLWPPRVSPGGRVYWGQGTQVTVSS

- binding: binds
B12: 3PE77 (VHH)
VHH: QVQLQESGGGLVQPGGSLRLSCADSGSTFTINAMAWYRQAPGKRRELVAGISGGVTNYPDSVKGRFTISRDNAKNTVYLQMSSLKPEDTAVYYCNLWPPRASPDGRVYWSQGTQVTVSS

- binding: binds
B13: 3PE82 (VHH)
VHH: QVQLQESGGGLVQPEGSLRLSCAASGSISSINAMAWYRQAPGKRRELVAGIDGGGVTNYPDSVKGRFTISRDNAKNTVYLQMSSLKPEDTAVYYCNLWPPRASPGGRVYWGKGTQVTVSS

- binding: binds
B14: 3PE90 (VHH)
VHH: QVQLQESGGGLVQVGGSLRLSCAASGSTFSINAMGWYRQAPGKRREWVAGITSGVTHYPDSVKGRFTISRDNAKNTVYLQMNSLKPEDTAVYYCNLWPPRASPSGSIYWGQGTQVTVSS

- binding: binds
B15: 3PE92 (VHH)
VHH: QVQLQESGGGLVQVGGSLRLSCAASGSTFSINNAMGWYRQAPGKRREWVAGISSGGVTHYPDSVKGRFTISRDNAKNIVYLQMNSPKPEDTAVYYCNLWPPRASPSGSIYWGQGTQVTVSS

- binding: binds
B23: 3PE26 (VHH)
VHH: QVQLQESGGGLVQAGGSLRLSCADSGSTFGLGAMGWYRQSPGKQRELVASITSGGRTNYADSVKGRFTISRVGAKRTVYLQMNSLKPEDTAVYVCNARFGIRDFWGQGTQVTVSS

- binding: binds
B24: 3PE33 (VHH)
VHH: QVQLQESGGGLVQAGGSLRLSCADSGSTFGLGAMGWYRQSPGKQRELVASITSGGRTNYADSVKGRFTISRENPKRTVYLQMNSLKPEDTAVYVCNARFGIRDFWGQGTQVTVSS

- binding: binds
B25: 3PE46 (VHH)
VHH: QVQLQESGGGLVQAGGSLRLSCADSGSTFGLGAMGWYRQSPGKQRELVASITSGGRTNYADSVKGRFTISRVGAKRTVYLQMNSLRPEDTAVYVCNARFGIRDFWGQGTQVTVSS

- binding: binds
B26: 3PE55 (VHH)
VHH: QVQLQESGGGLVQAGGSLRLSCADSGSTFGLGAMGWYRQSPGKQRELVASITSGGRTNYADSVKGRFTISRVSAKRTVYLQMNSLKPEDTAVYVCNARFGIRDFWGQGTQVTVSS

- binding: binds
B27: 3PE61 (VHH)
VHH: QVQLQESGGGLVRPGGSLRLSCADSGSTFGLSAMGWYRQSPGKQRELVASIISDGRTNYADSVKGRFTISRVNAKRTVYLQMNSLKPEDTAVYVCNARFGIRDFWGQGTQVTVSS

- binding: binds
B28: 3PE63 (VHH)
VHH: QVQLQESGGGLVQAGGSLRLSCADSGSTFGLSAMGWYRQSPGKQRELVASIISDGRTNYADSVKGRFTISRVNAKRTVYLQMNSLKPEDTAVYVCNARFGIRDFWGQGTQVTVSS

- binding: binds
B29: 3PE70 (VHH)
VHH: QVQLQESGGGLVQAGGSLRLSCADSGSTFGLGAMGWYRQSPGKQRELVASITSGGRTNYSDSVKGRFTISRVTPKRIVYLQMNSLKPEDTAVYVCNARFGIRDFWGQGTQVTVSS

The remaining lines, values behind:

B1: 3PE1 (VHH)
VHH: QVQLQESGGGLVQAGGSLKLSCAGSGSTFSINAMAWYRQAPGERRELVAGISGDNITNYPDSVKGRFTISRDNAKNTVYLQMSSLKPEDTAVYYCNLWPPRASPGGRVYWGQGTQVTVSS
- binding: binds

B2: 3PE5 (VHH)
VHH: QVQLQESGGGLVQPGGSLRLSCAASGSTFSINAMAWYRQAPGQRRELVAGISGGGVTNYPDSVKGRFTISRDNAKNTVYLQMSSLKPEDTAVYYCNLWPPRASPGGRVYWGQGTQVTVSS
- binding: binds

B3: 3PE21 (VHH)
VHH: QVQLQESGGGLVQAGESLRLSCAASGRDFRDNSMGWYRQAPGKRREWVAGISSGGVTHYPDSVKGRFTISRDNAKNIVYLQMDSLKPEDTAVYYCNLWPPRASPSGSIYWGQGTQVTVSS
- binding: binds

B16: 2PE18 (VHH)
VHH: QVQLQESGGGLVQAGGSLRLSCADSGSTFGLSAMGWYRQTPGKQRELVASITSDGRTNYADSVKGRFTISRVNPKRTVYLQMNSLKPDDTAVYVCNARFGIRDFWGQGTQVTVSS
- binding: binds

B17: 2PE22 (VHH)
VHH: QVQLQESGGGLVQPGGSLRLSCADSGSTFGLSAMGWYRQTPGKQRELVASITSDGRTNYADSVKGRFTISRVNPKRTVYLQMNSLKPDDTAVYVCNARFGIRDFWGQGTQVTVSS
- binding: binds

B18: 2PE26 (VHH)
VHH: QVQLQESGGGLVQAGGSLRLSCADSGSTFGLGAMGWYRQSPGKQRELVASITSGGRTNYADSVKGRFTISRVNAKRTVYLQMNSLKPEDTAVYVCNARFGIRDFWGQGTQVTVSS
- binding: binds

B19: 3PE4 (VHH)
VHH: QVQLQESGGGLVQAGGSLRLSCADSGSTFGLGAMGWYRQSPGKQRELVASITSGGRTNYSDSVKGRFTISRVNPKRIVYLQMNSLKPEDTAVYVCNARFGIRDFWGQGTQVTVSS
- binding: binds

B20: 2PE19 (VHH)
VHH: QVQLQESGGGLVQPGGSLRLSCADSGSTFTINAMAWYRQAPGKRRELVAGISGGVTNYPDSVKGRFTISRDNAKNTVYLQMSSLKPEDTAVYYCNLWPPRASPDGRVYWGQGTQVTVSS
- binding: binds

B21: 3PE16 (VHH)
VHH: QVQLQESGGGLVQAGGSLRLSCADSGSTFGLSAMGWYRLTPGKQRELVASITSDGRTNYADSVKGRFTISRVNPKRTVYLQMNSLKPDDTAVYVCNARFGIRDFWGQGTQVTVSS
- binding: binds

B22: 3PE22 (VHH)
VHH: QVQLQESGGGLVQPGGSLRLSCADSGSTFGLGAMGWYRQSPGKQRELVASITSGGRTNYADSVKGRFTISRVGAKRTVYLQMNSLKPEDTAVYVCNARFGIRDFWGQGTQVTVSS
- binding: binds

B30: 2PE20 (VHH)
VHH: QVQLQESGGGLVQPGGSLRLSCAASESTFSINAVAWYRQAPGKRRELVAGISGGGVTNYPDSVKGRFTVSRDNAKNIVYLQMSSLKPEDTAVYYCNLWPPRASPGGRVYWGQGTQVTVSS
- binding: binds

B31: 2PE1 (VHH)
VHH: QVQLQESGGGLVQAGGSLRLSCAASGSIFGINAVGWYRQAPGKQRELVATFTRGGDINYADSVKGRFTIFRDNAANTVYLQMNSLKAEDTAVYYCNTPPRIGRGYWGQGTQVTVSS
- binding: binds

B32: 2PE35 (VHH)
VHH: QVQLQESGGGLVQVGGSLRLSCAASGSIFGINAVGWYRQAPGKQRELVATFTRGGDINYADSVKGRFTIFRDNAANTVYLQMNSLKAEDTAVYYCNTPPRIGRGYWGQGTQVTVSS
- binding: binds

B33: 3PE11 (VHH)
VHH: QVQLQESGGGLVQPGGSLRLSCAASGSIFGINAVGWYRQAPGKQRELVATFTRGGDINYADSVKGRFTIFRDNAANTVYLQMNSLKAEDTAVYYCNTPPRIGRGYWGQGTQVTVSS
- binding: binds

B34: 2PE48 (VHH)
VHH: QVQLQESGGGLVQPGGSLRLSCAVSGTMLSRNAMGWYRQAPGKPRQWVAGITSDGLGNYVGFAKGRFTISRDNAKNTVYLQMNTLKPDDTAVYHCNFWPPPSGRPIWGQGTQVTVSS
- binding: binds
